Values quoted from earlier work as cited in US8945061B2, “Otic formulations, methods and devices” (Entrx LLC, priority 2012, dated 2015).

Tested on: fungus and bacteria
Settings: published literature; cited from earlier work

## O=C(O)c1cn(C2CC2)c2cc(N3CCNCC3)c(F)cc2c1=O [CIPRO, ciprofloxacin]
  Spectrum of Efficacy: gram positive and gram negative bacteria, including listeria,
